{
  "source": "paper PMC12670160",
  "about": "“A drug-repurposing screen of FDA- and EMA-approved drugs identifies two NF-κB inhibitors active against eumycetoma” (Journal of Antimicrobial Chemotherapy, 2025)",
  "note": "Structures can show the parent of a compound that is named as a salt. Screen size: about 5,300 compounds; about 130 (2.5%) showed an effect of 50% or more. Some of the results follow.",
  "data": [
    {"tested_on": "M. mycetomatis strain mm55", "conditions": "primary screen, metabolic activity vs growth control; 96 h, 2 µM; inhibitor", "units": {"% viability": "%"}, "values": [
      {"smiles": "COc1cc2nc(N3CCN(C(=O)COc4c(OC)cccc4C(C)C)CC3)nc(N)c2cc1OC", "note": "[ONC0000260, rec152615]", "% viability": 69},
      {"smiles": "CNCC/C=C/c1cccnc1", "note": "[ONC0005513, rjr 2403 oxalate]", "% viability": 95.62},
      {"smiles": "Cc1ncc(CO)c(CN)c1O", "note": "[ONC0005486, pyridoxamine]", "% viability": 80.9},
      {"smiles": "c1ccc2sc(N3CCN(Cc4ccc5c(c4)OCO5)CC3)nc2c1", "note": "[ONC0000161, 214piperonylpiperazinylbenzothiazole]", "% viability": 77.89},
      {"smiles": "O=C1Nc2ccc(Cl)cc2[C@@](C#CC2CC2)(C(F)(F)F)O1", "note": "[ONC0003451, efavirenz]", "% viability": 90.07},
      {"smiles": "NCC(O)c1ccc(O)cc1", "note": "(stereo not drawn) [ONC0003370, octopamine hydrochloride]", "% viability": 96.88},
      {"smiles": "O=C(O)C1(c2ccc(-c3ccc(Cl)c(Cl)c3)c(F)c2)CC1", "note": "[ONC0005431, itanapraced]", "% viability": 144.8},
      {"smiles": "Nc1ccc(C(=O)O)c(O)c1", "note": "[ONC0003334, aminosalicylate sodium]", "% viability": 35.29},
      {"smiles": "CNCc1ccc(C)c(NC(=O)c2ccc(Nc3nc(-c4ccccc4)c4ccccc4n3)cc2)c1", "note": "[ONC0005160, bms833923 xl139]", "% viability": 123.1},
      {"smiles": "C[C@@H]1CC[C@@]2(OC1)O[C@H]1C[C@H]3[C@@H]4CC=C5C[C@@H](O)CC[C@]5(C)[C@H]4CC[C@]3(C)[C@H]1[C@@H]2C", "note": "[ONC0004961, diosgenin]", "% viability": 83.53},
      {"smiles": "O[C@H](CNC[C@@H](O)[C@H]1CCc2cc(F)ccc2O1)[C@@H]1CCc2cc(F)ccc2O1", "note": "[ONC0004039, nebivolol hydrochloride]", "% viability": 98.08},
      {"smiles": "O=C1CNC(=O)CN1", "note": "[ONC0003785, piperazinedione]", "% viability": 65.19},
      {"smiles": "C=CCN1CCc2cc(O)c(O)cc2C(c2ccccc2)C1", "note": "(stereo not drawn) [ONC0001628, skf77434]", "% viability": 65.83},
      {"smiles": "O=C(NCCCCCCNC(=O)ON=C1CCCCC1)ON=C1CCCCC1", "note": "[ONC0003002, rhc80267]", "% viability": 85.14},
      {"smiles": "Nc1ncnc2nc[nH]c12", "note": "[ONC0003170, adenine]", "% viability": 115.9},
      {"smiles": "Nc1nc(/C(=C/CC(=O)O)C(=O)N[C@@H]2C(=O)N3C(C(=O)O)=CCS[C@H]23)cs1", "note": "[ONC0001312, ceftibuten dihydrate]", "% viability": 75.54},
      {"smiles": "N#Cc1cccc(-c2nc(-c3cccnc3)no2)c1", "note": "[ONC0003578, ns9283]", "% viability": 116.1},
      {"smiles": "CCCC[C@H](NC(=O)[C@@H]1[C@@H]2[C@H](CN1C(=O)[C@@H](NC(=O)NC1(CS(=O)(=O)C(C)(C)C)CCCCC1)C(C)(C)C)C2(C)C)C(=O)C(=O)NC1CC1", "note": "[ONC0000734, narlaprevir]", "% viability": 68.03}
    ]}
  ]
}
